Source: PMC5069480
No constants are given. Whether binding was seen depends on the method and setting. Binding seen in cells or lysates may run through a third protein. Some results given as binding are weak or reduced against the parent protein; the word gives no strength. For some assays here: Tags and fused reporters may be left off the sequences shown.

Amino acid sequences for entries named in this document (tags omitted). Residues count along the entry.
UniProt P19491, residues 22-883: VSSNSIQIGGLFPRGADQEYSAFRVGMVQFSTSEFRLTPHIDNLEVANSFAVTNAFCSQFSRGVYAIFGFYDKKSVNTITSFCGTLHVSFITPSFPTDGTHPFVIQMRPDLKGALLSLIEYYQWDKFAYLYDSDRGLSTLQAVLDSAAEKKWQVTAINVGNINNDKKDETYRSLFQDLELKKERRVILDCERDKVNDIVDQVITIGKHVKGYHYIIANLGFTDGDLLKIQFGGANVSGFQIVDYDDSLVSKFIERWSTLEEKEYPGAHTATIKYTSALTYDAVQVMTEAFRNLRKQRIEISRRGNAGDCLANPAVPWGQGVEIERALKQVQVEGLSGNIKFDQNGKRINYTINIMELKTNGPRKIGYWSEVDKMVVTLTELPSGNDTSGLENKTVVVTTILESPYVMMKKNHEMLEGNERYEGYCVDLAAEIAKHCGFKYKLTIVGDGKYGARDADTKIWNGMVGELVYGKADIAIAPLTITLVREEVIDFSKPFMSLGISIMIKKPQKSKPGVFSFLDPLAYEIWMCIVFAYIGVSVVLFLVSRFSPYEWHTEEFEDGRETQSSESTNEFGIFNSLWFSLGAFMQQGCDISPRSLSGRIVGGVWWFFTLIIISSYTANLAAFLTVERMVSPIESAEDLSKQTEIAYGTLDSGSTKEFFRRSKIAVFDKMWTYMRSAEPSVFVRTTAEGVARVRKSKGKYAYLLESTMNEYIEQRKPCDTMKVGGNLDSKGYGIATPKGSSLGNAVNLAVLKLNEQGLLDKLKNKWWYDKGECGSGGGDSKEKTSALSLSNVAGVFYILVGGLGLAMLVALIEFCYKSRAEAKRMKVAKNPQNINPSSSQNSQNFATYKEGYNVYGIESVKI
UniProt P97836: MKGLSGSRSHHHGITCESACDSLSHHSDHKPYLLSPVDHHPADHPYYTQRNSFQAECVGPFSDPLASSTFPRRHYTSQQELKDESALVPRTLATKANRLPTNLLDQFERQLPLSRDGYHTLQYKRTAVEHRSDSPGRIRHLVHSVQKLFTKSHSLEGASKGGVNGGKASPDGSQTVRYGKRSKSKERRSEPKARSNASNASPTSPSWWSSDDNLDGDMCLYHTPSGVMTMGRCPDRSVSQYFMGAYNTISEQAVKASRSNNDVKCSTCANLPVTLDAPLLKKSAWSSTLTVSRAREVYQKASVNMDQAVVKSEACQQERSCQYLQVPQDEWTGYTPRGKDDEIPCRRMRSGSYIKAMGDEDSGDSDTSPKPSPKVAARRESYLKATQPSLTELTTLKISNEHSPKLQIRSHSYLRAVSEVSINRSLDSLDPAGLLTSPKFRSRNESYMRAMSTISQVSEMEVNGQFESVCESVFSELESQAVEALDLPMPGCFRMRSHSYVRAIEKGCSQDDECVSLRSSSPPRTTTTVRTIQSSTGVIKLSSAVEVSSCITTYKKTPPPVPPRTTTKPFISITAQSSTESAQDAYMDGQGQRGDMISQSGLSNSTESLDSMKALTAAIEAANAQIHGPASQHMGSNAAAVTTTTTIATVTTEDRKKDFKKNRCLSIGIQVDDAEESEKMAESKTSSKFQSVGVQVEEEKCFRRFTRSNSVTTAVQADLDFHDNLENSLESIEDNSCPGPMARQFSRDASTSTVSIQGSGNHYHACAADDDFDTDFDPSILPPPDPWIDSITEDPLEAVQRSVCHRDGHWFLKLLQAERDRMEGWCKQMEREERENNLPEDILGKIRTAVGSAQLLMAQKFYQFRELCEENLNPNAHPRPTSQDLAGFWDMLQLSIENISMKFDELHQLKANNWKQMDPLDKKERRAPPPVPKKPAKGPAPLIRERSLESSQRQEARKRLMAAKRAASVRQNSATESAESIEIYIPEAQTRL

Tests used:
[1] = target: T1, endogenous Stargazin/TARPγ2 from rat brain crude synaptosomes (rat (endogenous in rat brain)) (UniProt Q71RJ2); assay: co-IP; endogenous proteins from adult rat brain crude synaptosomes in 50 mM Tris pH 7.4, 100 mM NaCl, 1 mM EDTA, 1% Triton-X; IP with mouse anti-Stargazin/TARPγ2 or rabbit anti-MPP2 and protein-G-agarose, or chicken anti-SynCAM-Biotin and streptavidin Dynabeads; IgG or IgY controls; western blot
T1 sequence: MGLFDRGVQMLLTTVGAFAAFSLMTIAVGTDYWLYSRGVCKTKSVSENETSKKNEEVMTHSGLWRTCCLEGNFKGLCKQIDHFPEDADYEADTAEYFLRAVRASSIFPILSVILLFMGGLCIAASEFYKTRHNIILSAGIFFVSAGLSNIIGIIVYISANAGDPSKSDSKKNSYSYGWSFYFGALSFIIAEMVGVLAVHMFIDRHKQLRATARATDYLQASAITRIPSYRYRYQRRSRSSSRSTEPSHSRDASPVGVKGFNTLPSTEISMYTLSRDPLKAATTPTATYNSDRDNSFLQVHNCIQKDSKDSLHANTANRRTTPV

[2] = target: T2, MYC-tagged full-length mouse MPP2 (MAGUK p55 subfamily member 2) (mouse) (UniProt Q9WV34); assay: co-IP; tagged recombinant proteins coexpressed in COS7 cells; lysis in 50 mM Tris pH 7.4, 100 mM NaCl, 1 mM EDTA, 1% Triton-X or 0.1% NP-40; IP with anti-MYC, anti-HA or anti-PSD-95 antibody (mouse IgG as control), protein-G-agarose, 4 °C; western blot
T2 sequence: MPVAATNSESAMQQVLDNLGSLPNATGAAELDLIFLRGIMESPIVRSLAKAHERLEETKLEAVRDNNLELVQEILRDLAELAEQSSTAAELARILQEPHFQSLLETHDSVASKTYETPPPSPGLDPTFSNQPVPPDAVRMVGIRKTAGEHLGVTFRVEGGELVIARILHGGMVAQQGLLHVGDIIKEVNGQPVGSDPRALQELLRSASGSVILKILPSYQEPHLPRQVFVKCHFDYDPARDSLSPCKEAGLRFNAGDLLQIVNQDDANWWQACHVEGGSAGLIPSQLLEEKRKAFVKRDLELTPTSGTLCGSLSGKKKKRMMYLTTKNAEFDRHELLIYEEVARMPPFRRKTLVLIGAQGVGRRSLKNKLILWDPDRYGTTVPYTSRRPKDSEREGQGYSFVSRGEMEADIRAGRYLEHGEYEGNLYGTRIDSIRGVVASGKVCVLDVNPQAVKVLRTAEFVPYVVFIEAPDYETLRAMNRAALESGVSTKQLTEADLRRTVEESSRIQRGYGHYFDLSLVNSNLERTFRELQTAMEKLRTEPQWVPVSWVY

Substance | binding [1] | binding [2]
endogenous AMPA receptor subunit GluA2 from rat brain crude synaptosomes (from UniProt P19491 22-883) | binds | –
FLAG-tagged recombinant GKAP (guanylate kinase associated protein) (from UniProt P97836 1-992) | – | binds
